Results on 39 sequences are retold here after paper PMC7862700.

Chains of the proteins cited; added tags and fusions are not shown. Lines headed by an entry give the natural chain unless they say otherwise; changes in a name come on top.
UniProt O43186: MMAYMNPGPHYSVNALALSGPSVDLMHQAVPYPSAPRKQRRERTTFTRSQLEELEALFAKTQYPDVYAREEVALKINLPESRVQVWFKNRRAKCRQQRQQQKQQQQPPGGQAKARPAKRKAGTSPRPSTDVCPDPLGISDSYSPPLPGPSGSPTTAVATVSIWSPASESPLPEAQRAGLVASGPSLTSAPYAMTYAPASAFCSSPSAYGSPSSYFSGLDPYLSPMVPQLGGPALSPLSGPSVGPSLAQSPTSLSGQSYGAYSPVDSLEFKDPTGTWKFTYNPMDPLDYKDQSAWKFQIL

The list shows a part of the results, in another mix than the full data. At the low end of the ranking the order means little.

For the assay, the target named is CRX (UniProt O43186). The assay is described as follows: DAPPL (digital affinity profiling via proximity ligation, sequencing). To be noted: 10 mM Tris-HCl pH 7.5, 50 mM NaCl, 1 mM DTT, 4% glycerol, room temperature, 30 min; GST-TFs on glutathione beads, 16-mer random dsDNA library, 0.1% …; high values mean tight binding; double strand, one strand shown; scale: fold enrichment (6-mer frequency, TF over GST control).
As for GCGTTT, the binding signal was determined as 0.926.

Take CCGGAC: the binding signal was 0.76.

In turn, ATAACA registered a binding signal of 1.39.

AACATT had a binding signal of 1.34.

Sequence GGAAAA displayed a binding signal of 0.943.

In turn, TGTCCC had a binding signal of 0.984.

Consider TGTTTT, for which the binding signal came out at 1.23.

On to CCACAA, for which the binding signal stood at 0.992.

In turn, ACTTGG showed a binding signal of 1.1.

Sequence TACCTG had a binding signal of 1.11.

TTCACA gave a binding signal of 0.958.

In the case of GTACGA, the binding signal came to 0.831.

Sequence CCACTA returned a binding signal of 1.12.

The sequence ATACTC had a binding signal of 1.37.

In the case of TAAGTA, the binding signal worked out at 2.63.

Sequence TCAAGG displayed a binding signal of 1.09.

CTCCAT came in with a binding signal of 1.19.

Consider CATGGT, for which the binding signal stood at 0.887.

Consider CTGCTG, for which the binding signal was determined as 1.01.

Sequence CTCTTA came in with a binding signal of 2.2.

In turn, ACATGT came in with a binding signal of 0.853.

Sequence GCTAGC came in with a binding signal of 1.05.

In the case of CCTGTG, the binding signal came out at 0.809.

On to CACATA, for which the binding signal stood at 0.97.

In turn, GTCACT had a binding signal of 0.748.

On to AATTTC, for which the binding signal came out at 1.49.

In the case of ACCCGA, the binding signal amounted to 1.1.

On to CGTATC, for which the binding signal is 0.964.

With TCGTCT, the binding signal turned out to be 1.37.

The sequence CGGATG displayed a binding signal of 0.793.

On to CTGTCC, for which the binding signal stood at 0.871.

As to TTCCAC, the binding signal is 1.26.

ACTCAC: the binding signal turned out to be 0.973.

Turning to CACCAA, the binding signal is 0.844.

In turn, TGTCTG yielded a binding signal of 0.866.

With AATGGT, the binding signal was 1.1.

Consider ACCCCA, for which the binding signal amounted to 0.927.

Regarding ACCATC, the binding signal came out at 0.953.

Take GTTTCT: the binding signal worked out at 1.15.
